The assay in a line: qHTS Assay to Find Inhibitors of Chronic Active B-Cell Receptor Signaling. Conditions: ABC-DLBCL IkBa-CBG/CBR reporter, luminescence ratio (green luciferase fused to IkBa over red control in TMD8 lymphoma cells), 4 h. In short, it runs like this: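 Compounds up to 46 uM were incubated four hours with TMD8 cells whose green CBG68 luciferase is fused to IkappaBalpha; red CBR luminescence normalised the signal, and concentration-effect curves were fitted to fusion, red and ratio data.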
On the technique in general: qHTS replaces the single test concentration by a dilution series.

Where [1] appears, read: measured here: CBR red luminescence, cell number.
[2] abbreviates: measured here: IkBa-CBG green luminescence.

Molecules are shown by their SMILES. The list shows a part of the results. Shown are side measurements of this screen, not its main read-out; they come without a call. Compounds called inactive in the main read-out are mostly missing here. The note in brackets gives the kind of curve behind each potency; many fits are weak.

Consider 64 compounds from PubChem BioAssay AID493014 (National Center for Advancing Translational Sciences (NCATS), 2011).

Consider `CC[C@]12c3[nH]c4ccc(OC)cc4c3CCN1C(=O)C(CC(=O)NCC13CC4CC(CC(C4)C1)C3)C[C@@H]2C(=O)N1CCN(C(=O)c2ccco2)CC1` (some centres undefined), for which the AC50 (usually the midpoint of the concentration-response curve, whichever way the signal moves) under setting [1] is 11.6 µM [falling, partial curve].

For `CCOC(=O)c1c(C)n(C)c2cc(-c3cccc(C(F)(F)F)c3)c(O)cc12`, the AC50 under setting [1] was 23.1 µM [rising, single point].

`CC(=O)Nc1cc(-c2nc3ccccc3o2)ccc1Cl`: the AC50 under setting [1] was 3.55 µM [rising, full curve, poor fit].

For `O=C1C2C3C=CC(CO)(O3)C2C(=O)N1c1ccccc1-c1ccccc1` (centres undefined), the AC50 under setting [1] is 5.01 µM [falling, partial curve].

For the compound `Cc1[nH]c2ccccc2c1C(=O)C(C)OC(=O)c1ccc([N+](=O)[O-])o1` (centres undefined), the AC50 under setting [1] was 35.5 µM [falling, single point].

As for `CCc1ccccc1NC(=O)c1ccc(-c2csc(C)n2)cc1`, the AC50 under setting [1] is 2.24 µM [falling, full curve].

For `COC(=O)c1cccc(NC(=O)c2onc3c2CCCC3)c1`, under setting [1], the half-maximal activity concentration (AC50) was 20.6 µM [falling, single point].

On to `COc1cc(-c2nc(C)c(C(C)=O)n2O)ccc1OCC(=O)Nc1ccc(F)cc1`, for which the AC50 under setting [1] was 10 µM [falling, partial curve, poor fit].

Take `Cc1onc(-c2ccccc2Cl)c1C(=O)Nc1cccc(S(=O)(=O)N2CCOCC2)c1`: under setting [1], the AC50 was 20.6 µM [rising, partial curve, poor fit].

As to `Cc1ccc(CN2CCN(C/C=C/c3ccc(F)cc3)CC2CCO)o1` (centres undefined), the AC50 under setting [1] is 14.1 µM [falling, single point].

For the compound `O=C(COC(=O)c1ccc(O)cc1O)Nc1ccc(Cl)cn1`, under setting [1], the AC50 was 6.31 µM [falling, single point].

On to `Cc1cccc(C)c1NC(=S)NCCc1ccc(O)c(O)c1`, for which, under setting [1], the AC50 was 15.8 µM [falling, single point].

Consider `O=c1[nH]c(C2CCN(S(=O)(=O)c3ccc4c(c3)OCCO4)CC2)nc2c1nnn2Cc1cccc(F)c1`, for which the AC50 under setting [1] is 35.5 µM [falling, single point].

As for `COc1ccc(-n2c(C)cc(/C=C3\SC(=O)NC3=O)c2C)cc1`, the AC50 under setting [1] is 25.1 µM [rising, single point].

Turning to `CCOC(=O)N1CCC(Nc2nc3ccccc3nc2NS(=O)(=O)c2ccc(Cl)cc2)CC1`, under setting [1], the AC50 is 1.16 µM [falling, full curve].

As for `CCOC(=O)c1[nH]c2ccc(OC)cc2c1NC(=O)CCN1CCC(C)CC1`, the AC50 under setting [1] is 3.26 µM [rising, partial curve, poor fit].

As to `O=C(Nc1ncc(Cc2ccc(SC(F)F)cc2)s1)c1ccccc1`, the AC50 was 31.6 µM [rising, single point] under setting [1] and 10 µM [falling, partial curve] under setting [2].

Regarding `Cc1ccccc1N1C(=O)c2cccc3cccc(c23)C1=O`, the half-maximal activity concentration (AC50) under setting [1] is 12.6 µM [rising, single point].

Take `CSc1nccc(N/N=C/c2ccccc2)n1`: the AC50 under setting [1] was 2.24 µM [falling, full curve].

Turning to `Fc1ccc2nc(Nc3nc4c(F)cccc4s3)sc2c1`, the AC50 under setting [1] is 32.6 µM [falling, single point].

In the case of `CSc1cccc(NC(=O)C(=O)NCc2ccccc2)c1`, the AC50 under setting [1] was 6.31 µM [falling, single point].

With `CCCCCc1n[nH]c2c1CCCC2`, the half-maximal activity concentration (AC50) under setting [1] is 35.5 µM [rising, single point].

`CCOC(=O)C1CCN(S(=O)(=O)c2ccc(CNC(=O)c3ccccc3)s2)CC1`: under setting [1], the AC50 is 17.8 µM [falling, single point].

In the case of `Cc1ccc(S(=O)(=O)Nc2ccc3c(c2)nc(CCN2CCCC2)n3C)cc1`, the AC50 under setting [1] is 25.1 µM [falling, single point].

Regarding `N#Cc1cc2c(nc1SCc1ccncc1)CCC2`, under setting [1], the AC50 was 36.6 µM [falling, partial curve, poor fit].

As for `CC(=O)N[C@@H](CS)C(=O)O`, under setting [1], the AC50 is 2.31 µM [rising, partial curve].

On to `COC(=O)/C(C#N)=C/N(C)C`, for which the AC50 under setting [1] was 15.8 µM [rising, single point].

With `CCN(CC)c1cccc(OC2=NS(=O)(=O)c3ccccc32)c1`, the AC50 under setting [1] is 12.6 µM [falling, partial curve, poor fit].

In the case of `Cc1ccnc(NC(=O)/C=C/c2ccccc2[N+](=O)[O-])c1`, under setting [1], the AC50 was 12.6 µM [falling, single point].

As to `O=C(c1ccc2nc[nH]c2c1)N1CCN(c2cccc(Cl)c2)CC1`, the AC50 is 25.1 µM [rising, single point] under setting [1] and 17.8 µM [falling, partial curve, poor fit] under setting [2].

Regarding `O=C(O)C1C2CCC(O2)C1C(=O)Nc1ccc(Cl)cc1F` (centres undefined), under setting [1], the AC50 is 35.5 µM [rising, single point].

Take `CCSc1nnc(NC(=O)c2cccc(OCc3c(C)noc3C)c2)s1`: the AC50 under setting [1] is 22.4 µM [falling, single point].

As for `Cc1ccc(NC(=O)N2CCc3ccccc32)cc1C`, under setting [1], the AC50 is 12.6 µM [falling, partial curve, poor fit].

Turning to `CN1C(=O)S/C(=C\c2ccccc2OCc2ccc(C(=O)O)cc2)C1=O`, the AC50 under setting [1] was 7.08 µM [falling, full curve, poor fit].

As to `COc1ccccc1CNC(=O)CSC(=S)N1CCCC1`, the AC50 is, setting by setting: under setting [1], 18.4 µM [rising, partial curve]; under setting [2], 16.4 µM [falling, partial curve].

For the compound `O=C(c1ccco1)N(CCC(c1ccccc1)c1ccco1)Cc1ccccc1` (centres undefined), the AC50 under setting [1] is 20.6 µM [falling, single point].

On to `COc1ccc(C(=O)c2ccc(N3CCN(C(=O)c4ccc(F)cc4)CC3)c(F)c2)cc1Br`, for which the AC50 under setting [1] was 1.64 µM [rising, single point].

On to `COc1ccc(CCNC(=O)c2cc(-c3ccc(C)cc3O)n[nH]2)cc1OC`, for which the AC50 under setting [1] was 1.46 µM [falling, full curve, poor fit].

For `CC(=O)c1ccc(NC(=O)C2CCC(C)NC2=O)cc1` (centres undefined), under setting [1], the AC50 is 0.326 µM [falling, partial curve, poor fit].

With `Cc1csc2ncnc(N3CCN(C(=S)Nc4ccc(F)cc4F)CC3)c12`, the AC50 under setting [1] was 1.26 µM [rising, partial curve, poor fit].

In the case of `COc1cccc(C2=CC(c3ccccc3)n3ncnc3N2)c1` (centres undefined), the AC50 under setting [1] is 3.16 µM [falling, full curve, poor fit].

With `COc1cccc(-c2csc(N3CCN(C(=O)Nc4ccc(F)cc4)CC3)n2)c1`, under setting [1], the AC50 was 29.1 µM [falling, single point].

For `COc1cc(C(=O)Nc2cc(C)c(OCC(=O)N3CCOCC3)c(C)c2)cc(OC)c1OC`, the AC50 under setting [1] is 12.6 µM [rising, partial curve, poor fit].

As for `CCC(=O)Nc1cccc(NC(=S)NC(=O)c2ccccc2Cl)c1`, under setting [1], the half-maximal activity concentration (AC50) was 0.562 µM [falling, full curve, poor fit].

Regarding `CC1(C)Cc2c(c(=S)nc(-c3ccccc3)n2CCO)CO1`, the half-maximal activity concentration (AC50) under setting [1] is 29.1 µM [rising, single point].

Consider `CC(=O)Nc1cccc(NC(=O)COc2ccc3c(c2)CCC3)c1`, for which, under setting [1], the AC50 is 9.2 µM [falling, partial curve, poor fit].

Take `CCn1c(=O)cc(SCC(=O)NCc2ccccn2)c2ccccc21`: the AC50 under setting [1] is 35.5 µM [falling, single point].

On to `CC(=O)Nc1ccc(NC(=O)CCCNC(=O)c2ccc(Cl)cc2)cc1`, for which, under setting [1], the AC50 was 15.8 µM [rising, partial curve, poor fit].

Consider `Cc1cc(N/N=C/c2ccncc2)c([N+](=O)[O-])cc1[N+](=O)[O-]`, for which, under setting [1], the AC50 was 0.794 µM [rising, full curve, poor fit].

Consider `Cc1cc(C)n(CC(O)COc2ccccc2Br)n1` (centres undefined), for which, under setting [1], the AC50 was 0.501 µM [falling, full curve, poor fit].

For `CCOC(=O)CN(C(=O)COC(=O)C1=NNC(=O)CC1)c1ccc(F)cc1`, the AC50 under setting [1] was 29.1 µM [falling, partial curve, poor fit].

In the case of `COc1ccc(CCNC(=O)c2ccc(Cl)cc2Cl)cc1`, under setting [1], the AC50 is 16.4 µM [rising, single point].

Take `O=C(CCl)N=c1sccn1Cc1cccc2ccccc12`: the AC50 under setting [1] was 12.6 µM [falling, partial curve, poor fit].

For the compound `CC(=O)C1=C(N2CCCCC2)CCC1=O`, the AC50 under setting [1] is 6.51 µM [falling, single point] and the AC50 under setting [2] was 2.91 µM [rising, partial curve, poor fit].

Turning to `Cc1ccc(Cc2c[nH]c(=S)s2)cc1`, under setting [1], the half-maximal activity concentration (AC50) was 5.62 µM [rising, single point].

Turning to `CCOc1cccc(N2C(=O)CC(N3CCN(c4nc5ccccc5s4)CC3)C2=O)c1` (centres undefined), the AC50 reads like this: under setting [1], 0.651 µM [rising, full curve, poor fit]; under setting [2], 1.64 µM [falling, partial curve, poor fit].

For the compound `COc1ccc(C(=O)OCCN2CCCCC2)cc1`, under setting [1], the AC50 was 1 µM [rising, partial curve, poor fit].

Regarding `Clc1ccc(-c2csc(N3CCSCC3)n2)cc1`, the AC50 under setting [1] is 32.6 µM [rising, single point].

For `CC1(OC(=O)C2CCCC2)C(=O)C=C2C=C(c3ccsc3)N(C(CO)CO)C=C2C1=O` (centres undefined), the AC50 under setting [1] was 35.5 µM [rising, single point].

For the compound `COc1cccc(/C=C(/CC(=O)Nc2ccc(N3CCOCC3)cc2)c2nc3ccccc3s2)c1`, under setting [1], the AC50 was 13 µM [falling, partial curve].

In the case of `N#Cc1nnn(Cc2ccccc2)c1N`, the AC50 under setting [1] is 12.6 µM [falling, partial curve].

Regarding `COc1cccc(/C=C2\Oc3cc(OCC(=O)N4CCCC4)ccc3C2=O)c1OC`, the AC50 under setting [1] is 25.1 µM [falling, single point].

On to `CCCCNC(=O)NCCN1CCOCC1`, for which the AC50 under setting [1] was 6.31 µM [rising, single point].

As for `CCc1ccccc1N(CC(=O)NCc1ccco1)C(=O)c1snc(C(N)=O)c1N`, the AC50 under setting [1] was 12.6 µM [falling, single point].
